Paper PMC10284794
Results are given in words; binding and its absence hold for the method and conditions named. Binding seen in cells or lysates may run through a third protein. A yes stands for co-enrichment or nearness to the bait. Other partners may have been found.

Sequences of proteins named here, by UniProt entry; tags and fusion partners are left off. A change or cut given only in a name is not applied to a line headed by its entry. Residues count along the entry.
UniProt P20029, residues 20-655: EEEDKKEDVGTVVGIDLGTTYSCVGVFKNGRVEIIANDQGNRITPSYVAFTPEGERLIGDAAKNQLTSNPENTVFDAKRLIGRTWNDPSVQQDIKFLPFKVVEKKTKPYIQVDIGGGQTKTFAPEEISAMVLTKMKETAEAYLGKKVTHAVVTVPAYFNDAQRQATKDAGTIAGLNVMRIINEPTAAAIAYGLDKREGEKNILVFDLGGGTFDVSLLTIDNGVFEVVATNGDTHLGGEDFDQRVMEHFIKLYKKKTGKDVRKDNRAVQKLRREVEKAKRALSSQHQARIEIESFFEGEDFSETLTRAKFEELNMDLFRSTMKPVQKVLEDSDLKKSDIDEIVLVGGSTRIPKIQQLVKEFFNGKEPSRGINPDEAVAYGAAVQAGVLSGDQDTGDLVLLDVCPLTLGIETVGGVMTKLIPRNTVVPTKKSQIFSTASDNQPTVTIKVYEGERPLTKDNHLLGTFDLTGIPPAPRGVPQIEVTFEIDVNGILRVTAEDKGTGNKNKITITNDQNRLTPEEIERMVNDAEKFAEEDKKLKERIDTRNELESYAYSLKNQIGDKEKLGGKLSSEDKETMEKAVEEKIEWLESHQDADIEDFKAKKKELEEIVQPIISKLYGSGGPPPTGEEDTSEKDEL
UniProt P01899, residues 25-362: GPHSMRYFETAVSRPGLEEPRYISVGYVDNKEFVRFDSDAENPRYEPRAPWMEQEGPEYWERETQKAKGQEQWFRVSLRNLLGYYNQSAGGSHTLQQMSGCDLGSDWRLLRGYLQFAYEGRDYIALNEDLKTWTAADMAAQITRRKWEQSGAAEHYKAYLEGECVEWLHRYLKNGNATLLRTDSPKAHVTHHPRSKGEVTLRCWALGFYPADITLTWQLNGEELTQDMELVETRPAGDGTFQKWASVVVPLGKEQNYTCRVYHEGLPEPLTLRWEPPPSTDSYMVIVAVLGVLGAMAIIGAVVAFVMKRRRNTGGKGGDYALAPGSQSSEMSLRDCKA
UniProt P43276: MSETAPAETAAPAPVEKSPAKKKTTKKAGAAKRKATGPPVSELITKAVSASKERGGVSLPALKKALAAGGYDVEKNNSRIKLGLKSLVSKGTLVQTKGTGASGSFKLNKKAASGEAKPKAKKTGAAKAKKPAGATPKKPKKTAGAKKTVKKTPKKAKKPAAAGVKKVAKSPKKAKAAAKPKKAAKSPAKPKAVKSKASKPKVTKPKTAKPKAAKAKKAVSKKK
UniProt P27546: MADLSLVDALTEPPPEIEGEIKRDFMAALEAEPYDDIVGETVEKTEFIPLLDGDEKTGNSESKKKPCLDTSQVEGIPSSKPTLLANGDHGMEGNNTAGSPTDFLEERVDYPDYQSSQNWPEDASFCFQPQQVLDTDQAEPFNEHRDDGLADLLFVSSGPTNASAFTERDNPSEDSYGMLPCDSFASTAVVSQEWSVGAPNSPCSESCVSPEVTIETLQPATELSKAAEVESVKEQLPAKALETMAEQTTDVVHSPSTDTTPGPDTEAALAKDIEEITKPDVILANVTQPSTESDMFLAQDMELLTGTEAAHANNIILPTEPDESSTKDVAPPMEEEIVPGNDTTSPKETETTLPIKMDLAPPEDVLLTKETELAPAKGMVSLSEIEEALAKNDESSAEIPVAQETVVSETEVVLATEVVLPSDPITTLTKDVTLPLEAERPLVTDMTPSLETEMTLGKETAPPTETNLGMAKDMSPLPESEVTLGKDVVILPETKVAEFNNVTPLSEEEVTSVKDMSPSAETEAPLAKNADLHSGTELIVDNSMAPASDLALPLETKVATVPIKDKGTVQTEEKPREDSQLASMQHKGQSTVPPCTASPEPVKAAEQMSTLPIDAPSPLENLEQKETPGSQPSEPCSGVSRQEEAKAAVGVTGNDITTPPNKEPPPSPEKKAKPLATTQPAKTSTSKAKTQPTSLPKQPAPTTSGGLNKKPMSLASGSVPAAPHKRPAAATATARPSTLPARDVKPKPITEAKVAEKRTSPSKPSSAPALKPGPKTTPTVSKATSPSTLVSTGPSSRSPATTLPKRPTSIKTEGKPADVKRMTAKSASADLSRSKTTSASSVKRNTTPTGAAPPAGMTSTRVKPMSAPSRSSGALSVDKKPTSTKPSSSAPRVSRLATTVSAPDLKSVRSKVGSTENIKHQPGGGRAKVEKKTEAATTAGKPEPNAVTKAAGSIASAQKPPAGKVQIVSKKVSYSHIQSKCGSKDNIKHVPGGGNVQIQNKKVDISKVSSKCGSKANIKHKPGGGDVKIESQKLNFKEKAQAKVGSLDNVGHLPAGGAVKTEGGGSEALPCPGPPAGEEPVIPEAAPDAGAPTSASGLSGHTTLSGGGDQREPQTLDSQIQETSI
UniProt P11247: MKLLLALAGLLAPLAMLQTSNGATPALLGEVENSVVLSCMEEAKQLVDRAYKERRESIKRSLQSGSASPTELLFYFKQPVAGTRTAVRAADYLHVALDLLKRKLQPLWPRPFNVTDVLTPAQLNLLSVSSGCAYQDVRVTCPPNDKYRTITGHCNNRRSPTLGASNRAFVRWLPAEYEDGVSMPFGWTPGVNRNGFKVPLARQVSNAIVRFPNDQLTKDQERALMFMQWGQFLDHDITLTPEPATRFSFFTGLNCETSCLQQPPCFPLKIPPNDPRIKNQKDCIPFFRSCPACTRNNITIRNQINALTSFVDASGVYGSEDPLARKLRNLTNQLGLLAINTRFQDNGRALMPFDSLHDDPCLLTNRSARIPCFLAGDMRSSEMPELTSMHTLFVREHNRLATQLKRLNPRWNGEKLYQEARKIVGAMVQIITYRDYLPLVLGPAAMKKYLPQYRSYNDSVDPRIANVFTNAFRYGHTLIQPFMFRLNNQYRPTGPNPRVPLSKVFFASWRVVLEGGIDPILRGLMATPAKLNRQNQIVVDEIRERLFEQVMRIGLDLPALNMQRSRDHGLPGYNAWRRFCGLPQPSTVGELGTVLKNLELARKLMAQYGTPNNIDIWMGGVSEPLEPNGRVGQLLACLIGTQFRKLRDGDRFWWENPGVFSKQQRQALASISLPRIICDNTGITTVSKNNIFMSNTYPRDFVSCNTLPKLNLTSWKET
UniProt Q9JHL1: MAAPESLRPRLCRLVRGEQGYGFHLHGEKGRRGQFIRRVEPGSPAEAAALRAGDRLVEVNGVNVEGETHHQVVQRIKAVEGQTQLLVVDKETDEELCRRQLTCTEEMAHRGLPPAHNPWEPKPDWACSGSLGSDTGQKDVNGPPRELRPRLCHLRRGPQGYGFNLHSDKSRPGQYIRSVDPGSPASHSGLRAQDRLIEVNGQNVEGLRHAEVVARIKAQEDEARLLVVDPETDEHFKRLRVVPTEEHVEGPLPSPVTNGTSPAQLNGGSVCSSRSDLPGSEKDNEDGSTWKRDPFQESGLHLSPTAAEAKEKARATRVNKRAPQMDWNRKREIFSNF
UniProt P20918: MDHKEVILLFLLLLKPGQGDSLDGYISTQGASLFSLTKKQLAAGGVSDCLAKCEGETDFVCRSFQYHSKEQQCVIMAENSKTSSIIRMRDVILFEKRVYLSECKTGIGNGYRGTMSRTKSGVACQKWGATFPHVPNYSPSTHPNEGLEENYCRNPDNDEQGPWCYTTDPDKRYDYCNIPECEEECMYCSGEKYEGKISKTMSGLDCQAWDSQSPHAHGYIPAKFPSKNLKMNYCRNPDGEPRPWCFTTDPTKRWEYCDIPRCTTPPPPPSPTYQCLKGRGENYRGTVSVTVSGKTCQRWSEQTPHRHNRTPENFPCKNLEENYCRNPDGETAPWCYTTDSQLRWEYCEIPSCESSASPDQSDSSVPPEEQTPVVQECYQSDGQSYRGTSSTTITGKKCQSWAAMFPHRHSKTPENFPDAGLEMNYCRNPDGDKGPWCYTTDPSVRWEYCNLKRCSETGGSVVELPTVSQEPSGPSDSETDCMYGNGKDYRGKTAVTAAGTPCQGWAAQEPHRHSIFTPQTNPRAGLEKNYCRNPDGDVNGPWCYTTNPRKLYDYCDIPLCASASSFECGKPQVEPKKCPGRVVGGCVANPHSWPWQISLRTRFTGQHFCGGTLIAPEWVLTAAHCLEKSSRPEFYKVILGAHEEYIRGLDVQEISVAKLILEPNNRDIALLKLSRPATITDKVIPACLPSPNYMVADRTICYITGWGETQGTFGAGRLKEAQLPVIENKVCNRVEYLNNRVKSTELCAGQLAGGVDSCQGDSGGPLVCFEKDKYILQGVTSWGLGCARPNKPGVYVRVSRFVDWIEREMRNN
UniProt P61327: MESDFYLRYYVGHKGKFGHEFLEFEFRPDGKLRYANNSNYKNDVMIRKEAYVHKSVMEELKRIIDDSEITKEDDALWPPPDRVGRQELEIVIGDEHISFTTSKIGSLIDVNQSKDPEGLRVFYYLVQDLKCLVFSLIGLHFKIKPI
UniProt Q99PL5: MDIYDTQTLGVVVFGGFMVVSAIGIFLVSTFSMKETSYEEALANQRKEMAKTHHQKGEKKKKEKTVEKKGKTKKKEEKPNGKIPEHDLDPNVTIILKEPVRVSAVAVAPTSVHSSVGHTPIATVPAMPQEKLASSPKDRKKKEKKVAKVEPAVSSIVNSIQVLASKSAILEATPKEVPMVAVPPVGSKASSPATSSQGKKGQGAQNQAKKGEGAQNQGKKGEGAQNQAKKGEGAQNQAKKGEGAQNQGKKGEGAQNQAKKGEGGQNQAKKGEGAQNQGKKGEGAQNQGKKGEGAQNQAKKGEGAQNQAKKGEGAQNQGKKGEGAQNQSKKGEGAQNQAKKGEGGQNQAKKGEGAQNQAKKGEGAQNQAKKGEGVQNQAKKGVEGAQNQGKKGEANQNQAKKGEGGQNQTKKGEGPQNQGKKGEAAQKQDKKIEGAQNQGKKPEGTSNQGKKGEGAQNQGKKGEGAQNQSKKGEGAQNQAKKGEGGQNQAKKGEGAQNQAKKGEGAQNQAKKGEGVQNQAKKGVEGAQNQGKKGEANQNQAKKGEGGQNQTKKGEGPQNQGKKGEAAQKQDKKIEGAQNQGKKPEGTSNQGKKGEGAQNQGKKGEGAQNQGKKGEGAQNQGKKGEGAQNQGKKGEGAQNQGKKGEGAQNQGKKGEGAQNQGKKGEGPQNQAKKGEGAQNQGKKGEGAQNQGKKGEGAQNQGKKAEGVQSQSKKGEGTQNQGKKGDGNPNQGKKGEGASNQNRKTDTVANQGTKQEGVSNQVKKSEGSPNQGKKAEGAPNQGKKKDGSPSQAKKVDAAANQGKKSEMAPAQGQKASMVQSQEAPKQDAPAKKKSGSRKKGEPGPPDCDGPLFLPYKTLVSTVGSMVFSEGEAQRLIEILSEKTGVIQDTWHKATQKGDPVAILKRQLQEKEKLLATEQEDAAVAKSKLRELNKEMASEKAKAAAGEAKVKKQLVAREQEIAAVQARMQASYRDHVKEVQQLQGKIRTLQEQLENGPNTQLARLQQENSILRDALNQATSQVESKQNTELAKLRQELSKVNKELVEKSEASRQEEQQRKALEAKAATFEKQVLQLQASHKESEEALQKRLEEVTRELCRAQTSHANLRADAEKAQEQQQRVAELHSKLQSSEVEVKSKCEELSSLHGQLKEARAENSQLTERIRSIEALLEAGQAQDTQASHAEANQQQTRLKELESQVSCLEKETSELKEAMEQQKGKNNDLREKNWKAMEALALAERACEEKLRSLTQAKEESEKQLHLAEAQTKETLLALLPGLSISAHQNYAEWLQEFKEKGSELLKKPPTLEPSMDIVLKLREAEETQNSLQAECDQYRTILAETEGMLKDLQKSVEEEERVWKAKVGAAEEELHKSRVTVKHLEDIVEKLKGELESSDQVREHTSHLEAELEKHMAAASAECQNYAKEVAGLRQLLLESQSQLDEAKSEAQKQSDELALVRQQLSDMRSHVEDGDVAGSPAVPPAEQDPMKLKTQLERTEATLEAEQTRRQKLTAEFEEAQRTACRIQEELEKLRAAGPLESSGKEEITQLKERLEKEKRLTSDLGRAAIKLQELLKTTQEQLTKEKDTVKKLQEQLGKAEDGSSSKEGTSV
UniProt Q6PDM2: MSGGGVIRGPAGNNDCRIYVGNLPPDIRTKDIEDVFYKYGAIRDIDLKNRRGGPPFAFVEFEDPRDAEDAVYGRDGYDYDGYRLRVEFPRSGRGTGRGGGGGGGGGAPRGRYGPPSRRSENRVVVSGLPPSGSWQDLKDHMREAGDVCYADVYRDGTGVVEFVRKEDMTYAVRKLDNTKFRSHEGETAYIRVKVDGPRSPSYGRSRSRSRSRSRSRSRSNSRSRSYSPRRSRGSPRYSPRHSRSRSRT

T1: RNF128, RING finger protein 128 (mouse (endogenous in lung tissue)) (UniProt Q9D304)
T1 sequence: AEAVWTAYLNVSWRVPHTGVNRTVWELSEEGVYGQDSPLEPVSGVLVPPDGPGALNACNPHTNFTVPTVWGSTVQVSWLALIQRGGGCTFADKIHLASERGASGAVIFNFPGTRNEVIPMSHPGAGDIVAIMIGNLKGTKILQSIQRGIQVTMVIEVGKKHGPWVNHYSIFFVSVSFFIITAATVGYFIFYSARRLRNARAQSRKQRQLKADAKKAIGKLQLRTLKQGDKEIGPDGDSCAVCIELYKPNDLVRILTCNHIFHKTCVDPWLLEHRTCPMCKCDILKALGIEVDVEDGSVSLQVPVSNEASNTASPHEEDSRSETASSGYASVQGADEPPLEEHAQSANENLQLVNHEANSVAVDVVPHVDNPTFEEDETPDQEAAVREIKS

B1: Neutrophilic granule protein (protein, UniProt O08692 22-167)
chain: LRQLRYEEIVDRAIEAYNQGRQGRPLFRLLSATPPSSQNPATNIPLQFRIKETECTSTQERQPKDCDFLEDGEERNCTGKFFRRRQSTSLTLTCDRDCSREDTQETSFNDKQDVSEKEKFEDVPPHIRNIYEDAKYDIIGNILKNF
B2: Dimethylaniline monooxygenase [N-oxide-forming] 2 (protein, UniProt Q8K2I3 1-535)
chain: MAKKVVVIGAGVSGLISLKCCVDEGLEPTCFERTEDIGGLWRFKENVEDGRASIYRSVITNTSKEMSCFSDFPMPEDFPNFLHNSKLLEYFRIFAKKFDLLKYIQFQTTVISVKKRPDFASSGQWEVYTQSNGKEQRTVFDAVMVCSGHHIQPHLPLKSFPGIERFRGQYFHSREYKHPVGFEGKRILVVGIGNSAADIASELSKTAAQVFVSTRHGSWVMSRISEDGYPWDMVFHTRFSSMLRNVLPRTVVKWMMEQQMNRWFNHENYGLVPQNKYLMKEPVLNDDLPSRLLYGAIKVKTRVKELTETAVVFEDGTVEEDVDIIVFATGYTFSFSFLEDSLVKVEDNRVSLYKAMFPPHLEKPTLACIGLIQPLGSIFPTVELQARWATRVFKGLCSLPSETTMMADIVERNEKRVNLFGKSQSQILQTNYVDYLDELALEIGAKPDFVSLFFKDPKLAVKLYFGPCNSYQYRLVGPGQWEGARNAILTQKQRILKPLKTRTLQSSDSAPVSFLLKILGLLAVVLAFFFQLQGF
B3: Nucleolar RNA helicase 2 (protein, UniProt Q9JIK5 1-851)
chain: MPGKLRSGAKLGSDGAEESMETLPKPSEKKTRKEKTKSKTEEATEGMEEAVSSKAKKTNKKGPSEDDVDPPKSRKAKKQEEEPQDDTASTSKTSKKKKEPLEKQADSETKEIITEEPSEEEADMPKPKKMKKGKEANGDAGEKSPKLKNGLSQPSEEEADIPKPKKMKKGKEANGDAGEKSPKLKNGLSQPSEEEVDIPKPKKMKKGKEASGDAGEKSPRLKDGLSQPSEPKSNSSDAPGEESSSETEKEIPVEQKEGAFSNFPISEETVKLLKARGVNFLFPIQAKTFHHVYSGKDLIAQARTGTGKTFSFAIPLIEKLQGGLQERKRGRAPQVLVLAPTRELANQVSKDFSDITKKLSVACFYGGTPYGGQIERMRSGIDILVGTPGRIKDHLQNGKLDLTKLKHVVLDEVDQMLDMGFADQVEEILCVAYKKDSEDNPQTLLFSATCPHWVFNVAKKYMKSTYEQVDLIGKKTQKAAITVEHLAIKCHWTERAAVIGDVIRVYSGHQGRTIIFCETKKDAQELSQNTCIKQDAQSLHGDIPQKQREITLKGFRNGNFGVLVATNVAARGLDIPEVDLVVQSCPPKDVESYIHRSGRTGRAGRTGVCICFYQNKEEYQLAQVEQKAGIKFKRIGVPSATEIIKASSKDAIRLLDSVPPTAISHFKQSAEKLIEEKGAVEALAAALAHISGATSVDQRSLINSQAGFVTMILRCSIEMPNISYAWKELKEQLGESIDAKVKGMVFLKGKLGVCFDVRTEAVTEIQEKWHDSRRWQLTVATEQPELEGPPDGYRGRMGQRDGSRGAFRGQRGGSRNFRGQGQRGGSRNFRGQRPGGGNRGQKRSFSKAFGQ
B4: Heterogeneous nuclear ribonucleoprotein L (protein, UniProt Q8R081 1-586)
chain: MSRRLLPRAEKRRRRLEQRQQPDEQLRRAGAMVKMAAAGGGGGGGRYYGGGNEGGRAPKRLKTENAGDQHGGGGGGGSGAAGGGGGENYDDPHKTPASPVVHIRGLIDGVVEADLVEALQEFGPISYVVVMPKKRQALVEFEDVLGACNAVNYAADNQIYIAGHPAFVNYSTSQKISRPGDSDDSRSVNSVLLFTILNPIYSITTDVLYTICNPCGPVQRIVIFRKNGVQAMVEFDSVQSAQRAKASLNGADIYSGCCTLKIEYAKPTRLNVFKNDQDTWDYTNPNLSGQGDPGSNPNKRQRQPPLLGDHPAEYGGPHGGYHSHYHDEGYGPPPPHYEGRRMGPPVGGHRRGPSRYGPQYGHPPPPPPPPDYGPHADSPVLMVYGLDQSKMNCDRVFNVFCLYGNVEKVKFMKSKPGAAMVEMADGYAVDRAITHLNNNFMFGQKMNVCVSKQPAIMPGQSYGLEDGSCSYKDFSESRNNRFSTPEQAAKNRIQHPSNVLHFFNAPLEVTEENFFEICDELGVKRPTSVKVFSGKSERSSSGLLEWDSKSDALETLGFLNHYQMKNPNGPYPYTLKLCFSTAQHAS
B5: Complement C1q subcomponent subunit C (protein, UniProt Q02105 30-246)
chain: SAGCYGIPGMPGMPGAPGKDGHDGLQGPKGEPGIPAVPGTRGPKGQKGEPGMPGHRGKNGPRGTSGLPGDPGPRGPPGEPGVEGRYKQKHQSVFTVTRQTTQYPEANALVRFNSVVTNPQGHYNPSTGKFTCEVPGLYYFVYYTSHTANLCVHLNLNLARVASFCDHMFNSKQVSSGGVLLRLQRGDEVWLSVNDYNGMVGIEGSNSVFSGFLLFPD
B6: Dihydrolipoyllysine-residue acetyltransferase component of pyruvate dehydrogenase complex, mitochondrial (protein, UniProt Q8BMF4 86-642)
chain: SLPPHQKVPLPSLSPTMQAGTIARWEKKEGEKISEGDLIAEVETDKATVGFESLEECYMAKILVPEGTRDVPVGSIICITVEKPQDIEAFKNYTLDLAAAAAPQAAPAAAPAPAAAPAAPSASAPGSSYPTHMQIVLPALSPTMTMGTVQRWEKKVGEKLSEGDLLAEIETDKATIGFEVQEEGYLAKILVPEGTRDVPLGAPLCIIVEKQEDIAAFADYRPTEVTSLKPQAAPPAPPPVAAVPPTPQPVAPTPSAAPAGPKGRVFVSPLAKKLAAEKGIDLTQVKGTGPEGRIIKKDIDSFVPSKAAPAAAAAMAPPGPRVAPAPAGVFTDIPISNIRRVIAQRLMQSKQTIPHYYLSVDVNMGEVLLVRKELNKMLEGKGKISVNDFIIKASALACLKVPEANSSWMDTVIRQNHVVDVSVAVSTPAGLITPIVFNAHIKGLETIASDVVSLASKAREGKLQPHEFQGGTFTISNLGMFGIKNFSAIINPPQACILAIGASEDKLIPADNEKGFDVASVMSVTLSCDHRVVDGAVGAQWLAEFKKYLEKPITMLL
B7: NHP2-like protein 1 (protein, UniProt Q9D0T1 1-128)
chain: MTEADVNPKAYPLADAHLTKKLLDLVQQSCNYKQLRKGANEATKTLNRGISEFIVMAADAEPLEIILHLPLLCEDKNVPYVFVRSKQALGRACGVSRPVIACSVTIKEGSQLKQQIQSIQQSIERLLV

Molecular target: T1, RNF128, RING finger protein 128 (mouse (endogenous in lung tissue))
Assay: affinity purification with mass spectrometry; whole lung tissue lysates from WT and WT-LPS mice immunoprecipitated using the RNF128 antibody; trypsin digest, LC-MS/MS; hits at least 2-fold more abundant in WT-LPS than in WT

binding, binds:
ATP-dependent RNA helicase A (from UniProt O70133 1-1380)
Endoplasmic reticulum chaperone BiP (from UniProt P20029 20-655)
H-2 class I histocompatibility antigen, D-B alpha chain (from UniProt P01899 25-362)
Heterogeneous nuclear ribonucleoprotein K (from UniProt P61979 1-463)
Heterogeneous nuclear ribonucleoprotein U (from UniProt Q8VEK3 1-800)
Histone H1.5 (from UniProt P43276 1-223)
Microtubule-associated protein 4 (from UniProt P27546 1-1125)
Moesin (from UniProt P26041 1-577)
Myeloperoxidase (from UniProt P11247)
Na(+)/H(+) exchange regulatory cofactor NHE-RF2 (from UniProt Q9JHL1 1-337)
Plasminogen (from UniProt P20918)
Protein mago nashi homologue (from UniProt P61327 1-146)
Ribosome-binding protein 1 (from UniProt Q99PL5 1-1605)
Serine/arginine-rich splicing factor 1 (from UniProt Q6PDM2 1-248)
TNFAIP3-interacting protein 1 (from UniProt Q9WUU8 1-647)
Talin-1 (from UniProt P26039 1-2541)
B1
B2
B3
B4
B5
B6
B7
